In publication PMC3919264:
Results are given in words; binding and its absence hold for the method and conditions named.

How the values were obtained:
[1] = biological target: Homo sapiens Kif15 motor domain with cover strand and neck linker (Kif15 1-375) (human) (UniProt Q9NS87); assay: SEC; analytical gel filtration, Superose 12 10/300 GL, 0.5 ml/min, 50 mM PIPES pH 6.8, 250 mM NaCl, 2 mM MgCl2, 1 mM DTT, calibrated with proteins of known molecular mass; both purified
[2] = biological target: Homo sapiens Kif15 motor domain and neck-linker region (Kif15 19-375) (human) (UniProt Q9NS87); assay: as above

binding [1] | binding [2] | Binder
no binding | – | Homo sapiens Kif15 motor domain with cover strand and neck linker (Kif15 1-375) (domain or fragment, UniProt Q9NS87 1-375) MAPGCKTELRSVTNGQSNQPSNEGDAIKVFVRIRPPAERSGSADGEQNLCLSVLSSTSLRLHSNPEPKTFTFDHVADVDTTQESVFATVAKSIVESCMSGYNGTIFAYGQTGSGKTFTMMGPSESDNFSHNLRGVIPRSFEYLFSLIDREKEKAGAGKSFLCKCSFIEIYNEQIYDLLDSASAGLYLREHIKKGVFVVGAVEQVVTSAAEAYQVLSGGWRNRRVASTSMNRESSRSHAVFTITIESMEKSNEIVNIRTSLLNLVDLAGSERQKDTHAEGMRLKEAGNINRSLSCLGQVITALVDVGNGKQRHVCYRDSKLTFLLRDSLGGNAKTAIIANVHPGSRCFGETLSTLNFAQRAKLIKNKAVVNEDTQG
– | no binding | Homo sapiens Kif15 motor domain and neck-linker region (Kif15 19-375) (domain or fragment, UniProt Q9NS87 19-375) QPSNEGDAIKVFVRIRPPAERSGSADGEQNLCLSVLSSTSLRLHSNPEPKTFTFDHVADVDTTQESVFATVAKSIVESCMSGYNGTIFAYGQTGSGKTFTMMGPSESDNFSHNLRGVIPRSFEYLFSLIDREKEKAGAGKSFLCKCSFIEIYNEQIYDLLDSASAGLYLREHIKKGVFVVGAVEQVVTSAAEAYQVLSGGWRNRRVASTSMNRESSRSHAVFTITIESMEKSNEIVNIRTSLLNLVDLAGSERQKDTHAEGMRLKEAGNINRSLSCLGQVITALVDVGNGKQRHVCYRDSKLTFLLRDSLGGNAKTAIIANVHPGSRCFGETLSTLNFAQRAKLIKNKAVVNEDTQG
